Experimental data: PubChem BioAssay AID1259284 (Sanger Institute, 2017)
The deposit covers 794 reagents; this is a random part of them. Over the whole deposit, 16 (2%) got an active call. 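Calls concern knock-down without drug only; drug synergy was judged apart, with scores above 0.15 taken as synergy.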 Not all columns of the deposit are shown. The record does not give: the amount of reagent, the time to read-out.

- Screen: 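Kinase genes needed for growth or acting with cancer drugs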 (primary screen)
- System: SW48 human colorectal cancer cells
- Reagents: siRNA pool against human genes
- Challenge: anchor drug BYL719 at 1 µM, cetuximab at 5 µg/ml or trametinib at 10 nM, or DMSO vehicle alone
- Measured: 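Viability scaled to non-targeting control pool, robust z-score from controls, and synergy scores for each drug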
- Direction: robust z-score, no drug: higher = more cells survive knock-down
- Hit rule: 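a knock-down is essential if viability without drug gives a robust z-score under -3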
- Calls: active = essential without drug; inactive = no change without drug

gene	robust z-score, no drug	call
PGK1 (GeneID 5230)	0.426	inactive
DSTYK (GeneID 25778)	0.426	inactive
TWF1 (GeneID 5756)	0.426	inactive
BRWD1 (GeneID 54014)	0.426	inactive
RTN4 (GeneID 57142)	0.426	inactive
RIPK3 (GeneID 11035)	0.426	inactive
CAD (GeneID 790)	0.426	inactive
ATR (GeneID 545)	0.426	inactive
CHEK2 (GeneID 11200)	0.426	inactive
MAGI3 (GeneID 260425)	0.426	inactive
RPS6KB1 (GeneID 6198)	0.426	inactive
DBF4 (GeneID 10926)	0.426	inactive
CDKL3 (GeneID 51265)	0.426	inactive
MAP3K2 (GeneID 10746)	0.426	inactive
RIPK1 (GeneID 8737)	-0.276	inactive
NTRK3 (GeneID 4916)	0.426	inactive
BCKDK (GeneID 10295)	0.426	inactive
N4BP2 (GeneID 55728)	0.426	inactive
NRBP2 (GeneID 340371)	-0.512	inactive
LATS1 (GeneID 9113)	0.426	inactive
PRPS1 (GeneID 5631)	0.426	inactive
CIB2 (GeneID 10518)	0.426	inactive
RPS6KA5 (GeneID 9252)	-1.52	inactive
PINK1 (GeneID 65018)	0.426	inactive
DMPK (GeneID 1760)	0.426	inactive
PKM (GeneID 5315)	0.426	inactive
KRAS (GeneID 3845)	0.426	inactive
EIF2AK2 (GeneID 5610)	-0.478	inactive
ADGRL2 (GeneID 23266)	0.426	inactive
PRKD3 (GeneID 23683)	0.426	inactive
PMVK (GeneID 10654)	-0.323	inactive
IP6K1 (GeneID 9807)	0.426	inactive
EFNB3 (GeneID 1949)	0.426	inactive
PXK (GeneID 54899)	0.426	inactive
AKAP9 (GeneID 10142)	-1.52	inactive
PIK3CG (GeneID 5294)	-0.428	inactive
IRAK1 (GeneID 3654)	-0.19	inactive
EPHA2 (GeneID 1969)	0.426	inactive
PTPRU (GeneID 10076)	0.426	inactive
TNK2 (GeneID 10188)	0.426	inactive
TLK2 (GeneID 11011)	0.426	inactive
BRD2 (GeneID 6046)	0.426	inactive
CDKN2C (GeneID 1031)	0.426	inactive
CDKL1 (GeneID 8814)	-0.0326	inactive
PRKAR1A (GeneID 5573)	0.426	inactive
DGKD (GeneID 8527)	0.426	inactive
FES (GeneID 2242)	0.426	inactive
CDC42BPB (GeneID 9578)	0.426	inactive
TP53RK (GeneID 112858)	0.426	inactive
PKN1 (GeneID 5585)	0.426	inactive

3 entries from above in another layout.
TWF1 (GeneID 5756) → robust z-score, no drug: 0.426; call: inactive
BRWD1 (GeneID 54014) → robust z-score, no drug: 0.426; call: inactive
RTN4 (GeneID 57142) → robust z-score, no drug: 0.426; call: inactive
